Numbering of substitutions follows the chain as printed. Read-outs that look alike come from different tables or passages of the source. Results are given in words; binding and its absence hold for the method and conditions named. Binding can be weak; no strength is given. For some assays here: Binding seen in cells or lysates may run through a third protein. For some assays here: Where a sequence is shown, tags or fusion partners need not be part of it.
Legend:
[1] = biological target: T1, CML13, yeast two-hybrid bait (pGBKT7-CML13) (Arabidopsis thaliana) (UniProt Q94AZ4); experiment: two-hybrid
T1 sequence: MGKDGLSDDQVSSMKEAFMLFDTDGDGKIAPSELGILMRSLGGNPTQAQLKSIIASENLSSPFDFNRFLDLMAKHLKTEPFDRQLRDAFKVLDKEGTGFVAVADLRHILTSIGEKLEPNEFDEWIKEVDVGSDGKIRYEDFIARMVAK

Amino acid sequences for entries named in this document (tags omitted). A change or cut given only in a name is not applied to a line headed by its entry.
UniProt Q8VZ50: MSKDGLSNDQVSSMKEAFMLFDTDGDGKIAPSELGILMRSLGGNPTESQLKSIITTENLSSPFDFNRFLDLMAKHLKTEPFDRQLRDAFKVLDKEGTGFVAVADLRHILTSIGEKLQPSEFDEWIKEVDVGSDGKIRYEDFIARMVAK
UniProt Q9FYG2: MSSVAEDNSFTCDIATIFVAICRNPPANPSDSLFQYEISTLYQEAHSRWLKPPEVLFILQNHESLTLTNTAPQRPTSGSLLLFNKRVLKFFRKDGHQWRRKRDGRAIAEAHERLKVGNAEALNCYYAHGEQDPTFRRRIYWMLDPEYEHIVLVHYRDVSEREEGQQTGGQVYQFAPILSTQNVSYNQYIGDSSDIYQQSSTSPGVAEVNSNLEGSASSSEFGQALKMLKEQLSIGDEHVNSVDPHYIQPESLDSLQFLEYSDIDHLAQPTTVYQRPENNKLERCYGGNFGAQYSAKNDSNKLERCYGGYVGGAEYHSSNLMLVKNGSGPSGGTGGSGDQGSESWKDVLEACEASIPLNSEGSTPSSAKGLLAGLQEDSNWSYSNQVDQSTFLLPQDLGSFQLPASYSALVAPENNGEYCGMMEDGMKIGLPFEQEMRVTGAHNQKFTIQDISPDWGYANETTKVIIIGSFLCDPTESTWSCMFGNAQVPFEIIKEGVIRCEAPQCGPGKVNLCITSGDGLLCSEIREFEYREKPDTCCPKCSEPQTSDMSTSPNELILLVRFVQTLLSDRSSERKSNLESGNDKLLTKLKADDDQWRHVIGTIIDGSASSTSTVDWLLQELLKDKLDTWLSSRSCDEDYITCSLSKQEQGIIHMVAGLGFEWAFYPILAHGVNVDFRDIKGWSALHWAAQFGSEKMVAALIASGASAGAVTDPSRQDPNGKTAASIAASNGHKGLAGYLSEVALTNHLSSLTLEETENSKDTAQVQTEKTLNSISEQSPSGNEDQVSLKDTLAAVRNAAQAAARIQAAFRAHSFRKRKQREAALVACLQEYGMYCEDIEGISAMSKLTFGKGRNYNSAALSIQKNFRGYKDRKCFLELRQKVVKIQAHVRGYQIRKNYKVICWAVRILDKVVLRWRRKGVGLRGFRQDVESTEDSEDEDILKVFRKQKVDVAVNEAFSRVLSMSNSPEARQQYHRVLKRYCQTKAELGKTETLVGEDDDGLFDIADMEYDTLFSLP
UniProt Q8LPG9: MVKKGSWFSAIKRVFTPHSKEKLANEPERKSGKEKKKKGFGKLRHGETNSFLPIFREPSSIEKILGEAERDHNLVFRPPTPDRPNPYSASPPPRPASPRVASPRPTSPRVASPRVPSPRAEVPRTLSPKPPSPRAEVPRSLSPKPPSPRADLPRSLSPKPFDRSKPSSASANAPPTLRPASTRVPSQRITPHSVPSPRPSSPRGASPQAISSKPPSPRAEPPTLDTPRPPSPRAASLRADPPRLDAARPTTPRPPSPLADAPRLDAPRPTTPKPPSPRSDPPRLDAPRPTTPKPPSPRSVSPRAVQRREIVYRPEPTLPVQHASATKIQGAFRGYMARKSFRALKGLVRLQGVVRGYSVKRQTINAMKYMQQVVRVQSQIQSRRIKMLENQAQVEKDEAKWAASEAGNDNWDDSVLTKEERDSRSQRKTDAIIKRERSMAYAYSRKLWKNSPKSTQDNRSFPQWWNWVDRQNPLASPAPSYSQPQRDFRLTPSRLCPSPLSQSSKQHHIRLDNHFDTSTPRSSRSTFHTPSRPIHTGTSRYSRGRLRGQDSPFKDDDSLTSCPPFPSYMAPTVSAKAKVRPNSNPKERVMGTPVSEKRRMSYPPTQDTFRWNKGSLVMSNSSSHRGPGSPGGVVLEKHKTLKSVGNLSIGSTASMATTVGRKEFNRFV
UniProt F4JIU4: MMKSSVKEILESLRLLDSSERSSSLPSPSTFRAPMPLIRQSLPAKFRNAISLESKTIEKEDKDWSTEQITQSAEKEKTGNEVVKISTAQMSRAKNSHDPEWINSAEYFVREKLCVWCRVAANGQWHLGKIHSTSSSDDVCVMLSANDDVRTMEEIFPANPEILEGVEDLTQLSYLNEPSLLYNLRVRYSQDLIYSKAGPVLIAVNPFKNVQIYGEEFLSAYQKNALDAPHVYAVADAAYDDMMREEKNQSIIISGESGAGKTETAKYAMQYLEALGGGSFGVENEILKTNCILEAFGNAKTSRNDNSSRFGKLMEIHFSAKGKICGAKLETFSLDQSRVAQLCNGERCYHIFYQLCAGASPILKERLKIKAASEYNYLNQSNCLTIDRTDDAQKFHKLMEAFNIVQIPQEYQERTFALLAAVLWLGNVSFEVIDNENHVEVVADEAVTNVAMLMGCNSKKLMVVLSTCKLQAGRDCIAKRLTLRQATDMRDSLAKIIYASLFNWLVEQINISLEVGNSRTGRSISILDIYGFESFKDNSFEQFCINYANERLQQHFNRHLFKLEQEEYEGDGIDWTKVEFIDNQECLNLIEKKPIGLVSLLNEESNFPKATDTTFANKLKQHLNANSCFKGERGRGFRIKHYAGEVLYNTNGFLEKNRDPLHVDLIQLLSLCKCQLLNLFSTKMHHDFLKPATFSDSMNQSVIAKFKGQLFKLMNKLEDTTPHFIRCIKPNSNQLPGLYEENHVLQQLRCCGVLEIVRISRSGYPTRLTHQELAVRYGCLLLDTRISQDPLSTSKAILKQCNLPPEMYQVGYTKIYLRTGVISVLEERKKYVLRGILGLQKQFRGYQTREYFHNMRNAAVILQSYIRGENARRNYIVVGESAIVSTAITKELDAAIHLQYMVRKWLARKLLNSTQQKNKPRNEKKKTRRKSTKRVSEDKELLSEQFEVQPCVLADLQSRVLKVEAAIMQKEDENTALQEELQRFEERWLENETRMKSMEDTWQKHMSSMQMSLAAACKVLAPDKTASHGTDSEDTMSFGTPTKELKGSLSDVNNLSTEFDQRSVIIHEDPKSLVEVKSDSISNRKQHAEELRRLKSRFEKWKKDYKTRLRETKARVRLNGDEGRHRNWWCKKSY

[2] = biological target: T2, CML14, yeast two-hybrid bait (pGBKT7-CML14) (Arabidopsis thaliana) (UniProt Q8VZ50); experiment: two-hybrid
T2 sequence: T1 sequence with G2S, D8N, Q47E, A48S, A55T, S56T, E117Q, N119S

[3] = biological target: T1, CML13, yeast two-hybrid bait (pGBKT7-CML13) (Arabidopsis thaliana); experiment: two-hybrid; remark: listed apart in the source
[4] = biological target: T3, CLuc-CML14 (split-luciferase bait) (Arabidopsis thaliana) (UniProt Q8VZ50); experiment: split reporter
T3 sequence: T1 sequence with G2S, D8N, Q47E, A48S, A55T, S56T, E117Q, N119S

[5] = biological target: T4, CLuc-CML13 (split-luciferase bait) (Arabidopsis thaliana) (UniProt Q94AZ4); experiment: split reporter
T4 sequence: T1 sequence

Substance	binding [1]	binding [2]	binding [3]	binding [4]	binding [5]
CAMTA2 (AA# 358-1100), yeast two-hybrid prey (Arabidopsis thaliana) (domain or fragment)	binds	binds	binds		
NLuc fusion of the IQ-region of CAMTA4 (split-luciferase prey) (from UniProt Q9FYG2) (domain or fragment)				binds	binds
NLuc fusion of the IQ-region of IQD14 (split-luciferase prey) (from UniProt Q8LPG9) (domain or fragment)				binds	binds
NLuc fusion of the IQ-region of myosin VIII-B (split-luciferase prey) (from UniProt F4JIU4) (domain or fragment)				binds	binds
NLuc fusion of the single-IQ domain of IQM1 (split-luciferase prey) (Arabidopsis thaliana) (domain or fragment)				binds weakly	binds weakly
